PubChem BioAssay AID1053208 | Peter MacCallum Cancer Centre | 2014
Here is a random part of about 17,000 deposited reagents. Of all reagents, 788 (4.7%) got an active call. 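Calls rest on z-score classes alone; an extra cut-off of viability at most 70% of control was not applied to them.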 Further read-outs or replicates are left out here.

Aim: 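Find knock-downs that sensitise mouse osteosarcoma cells to doxorubicin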 (primary screen)
Cells: mouse osteosarcoma cells, early-passage culture from an engineered mouse model of fibroblastic bone tumour
Reagents: siRNA pool against mouse genes, 40 nM
Duration: about 120 h (48 h before drug, then 72 h with drug)
Treatment: doxorubicin 100 nM for 72 h, roughly 30-40% inhibitory dose
Detection: 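Viability read as ATP luminescence after 72 h of 100 nM doxorubicin or none, duplicate wells averaged, scaled to non-targeting siRNA, then expressed as robust z-scores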
Direction: viability z-score with doxorubicin: higher = more viable cells under doxorubicin; viability z-score without drug: higher = more viable cells with knock-down alone; z-score of drug to no-drug ratio: higher = less drug sensitisation by knock-down
Call rule: 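Called active if knock-down leaves viability unchanged without drug (z within -2 to 2) but lowers it with doxorubicin (z at or under -2)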

Gene | combined z-score class | viability z-score with doxorubicin | viability z-score without drug | z-score of drug to no-drug ratio | Call
COL6A3 | no change with or without drug | 0.56 | 0.34 | 0.45 | inactive
Stard4 | no change with or without drug | 0 | 0.51 | -0.22 | inactive
Tmem42 | no change with or without drug | 0 | 1.52 | -0.9 | inactive
St3gal6 | no change with or without drug | -0.9 | 0.17 | -0.9 | inactive
Cideb | low cell count with doxorubicin only | -2.14 | -0.51 | -1.8 | active
Klf17 | no change with or without drug | -0.34 | 1.52 | -1.12 | inactive
Coq9 | no change with or without drug | -0.9 | 1.35 | -1.69 | inactive
Cetn1 | no change with or without drug | -0.9 | 0.34 | -1.01 | inactive
Eif2b1 | no change with or without drug | 0.34 | 0.51 | 0.11 | inactive
Sde2 | no change with or without drug | 0 | -0.84 | 0.67 | inactive
Mrpl54 | low cell count with and without drug | -4.16 | -3.37 | -2.47 | inactive
Or9m1b | no change with or without drug | 0.79 | 0.51 | 0.56 | inactive
Ms4a4c | no change with or without drug | 0.67 | -0.67 | 1.35 | inactive
Frmd6 | no change with or without drug | 0.34 | 0.17 | 0.34 | inactive
Adgrf5 | no change with or without drug | -0.67 | 0.67 | -1.01 | inactive
Col23a1 | no change with or without drug | 1.91 | 1.52 | 1.01 | inactive
Or8k23 | no change with or without drug | -1.57 | -1.85 | -0.34 | inactive
Gprc5d | no change with or without drug | 0.34 | -0.34 | 0.67 | inactive
Bet1l | low cell count without drug only | -1.46 | -3.04 | 0.79 | inactive
Or12e10 | no change with or without drug | 0.9 | -0.17 | 1.24 | inactive
Gabra5 | no change with or without drug | 0.79 | 0.84 | 0.34 | inactive
Mau2 | no change with or without drug | -0.9 | 0.51 | -1.12 | inactive
Tmem183a | no change with or without drug | 1.12 | -0.84 | 2.02 | inactive
Cpm | no change with or without drug | -0.67 | 0.17 | -0.67 | inactive
Ca9 | no change with or without drug | 1.12 | 0.17 | 1.12 | inactive
Sfrp4 | no change with or without drug | 0.67 | 0.34 | 0.56 | inactive
Krt20 | no change with or without drug | 0 | 0.84 | -0.45 | inactive
Or1ak2 | no change with or without drug | -1.24 | -0.34 | -1.01 | inactive
Ints6 | no change with or without drug | -0.45 | -0.51 | 0 | inactive
Tmem176b | high cell count without drug only | -0.22 | 2.02 | -1.35 | inactive
Mtif2 | no change with or without drug | -0.67 | -0.51 | -0.22 | inactive
Dsc2 | no change with or without drug | 0.56 | 0.51 | 0.34 | inactive
Fsd2 | high cell count without drug only | 0.45 | 2.7 | -1.12 | inactive
Arpc1b | no change with or without drug | 0.22 | 0.34 | 0.11 | inactive
P2ry10 | no change with or without drug | 1.46 | 1.69 | 0.45 | inactive
Celsr3 | no change with or without drug | -0.45 | -0.17 | -0.22 | inactive
Inpp5f | no change with or without drug | 0.9 | -0.84 | 1.69 | inactive
Nfe2l3 | no change with or without drug | 1.57 | 0.67 | 1.24 | inactive
Arg2 | no change with or without drug | 0.67 | -0.51 | 1.24 | inactive
Rps27 | low cell count with and without drug | -4.95 | -2.19 | -4.16 | inactive
Mycn | no change with or without drug | 0.45 | -0.84 | 1.24 | inactive
Ubn2 | no change with or without drug | 0.45 | 0.51 | 0.22 | inactive
Vsx1 | no change with or without drug | 0.9 | 1.85 | -0.22 | inactive
Minar2 | no change with or without drug | 0.56 | -0.84 | 1.35 | inactive
Rpl23a | low cell count with and without drug | -5.85 | -9.11 | 0.45 | inactive
Shc1 | high cell count with doxorubicin only | 2.36 | 0.17 | 2.47 | inactive
Lypd6 | no change with or without drug | -1.57 | 0.51 | -1.8 | inactive
Slc25a33 | no change with or without drug | 1.69 | 1.85 | 0.56 | inactive
Dsp | no change with or without drug | 1.57 | 0.17 | 1.69 | inactive
Nrl | no change with or without drug | 1.01 | -0.51 | 1.57 | inactive

Targets above whose target name starts with T or t:
Gene | combined z-score class | viability z-score with doxorubicin | viability z-score without drug | z-score of drug to no-drug ratio | Call
Tmem42 | no change with or without drug | 0 | 1.52 | -0.9 | inactive
Tmem183a | no change with or without drug | 1.12 | -0.84 | 2.02 | inactive
Tmem176b | high cell count without drug only | -0.22 | 2.02 | -1.35 | inactive
